1 substance from publication PMC7279496 can be followed below.

For this assay, the target named is T1, recombinant Aim23p (yeast mitochondrial translation initiation factor 3) (S. cerevisiae) (UniProt P47015).
T1 sequence: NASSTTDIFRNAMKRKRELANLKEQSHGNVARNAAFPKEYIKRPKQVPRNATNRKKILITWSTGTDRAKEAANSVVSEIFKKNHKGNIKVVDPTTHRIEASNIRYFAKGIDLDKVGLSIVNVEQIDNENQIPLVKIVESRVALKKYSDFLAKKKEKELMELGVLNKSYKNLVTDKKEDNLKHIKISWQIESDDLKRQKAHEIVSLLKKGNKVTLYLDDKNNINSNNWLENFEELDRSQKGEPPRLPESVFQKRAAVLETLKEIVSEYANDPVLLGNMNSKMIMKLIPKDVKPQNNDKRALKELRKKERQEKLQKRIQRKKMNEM
The assay can be described thus: native gel or EMSA; recombinant proteins, alone or together, separated by non-denaturing PAGE with imidazole-HEPES buffer system, gel pH 7.4; increasing amounts of Pet111p added to Aim23p; bovine serum albumin present as competitor; both purified.

Results are given in words; binding and its absence hold for the method and conditions named. A result given as binding can be weak or reduced; the word gives no strength.

Turning to “recombinant Pet111p (without mitochondrial targeting sequence) (S. cerevisiae)”, the binding result was “binds”.
